# Data from PubChem BioAssay (EPA / NIEHS).
# Chains of the proteins cited; added tags and fusions are not shown. Lines headed by an entry give the natural chain unless they say otherwise; changes in a name come on top.
# UniProt Q9UNQ0: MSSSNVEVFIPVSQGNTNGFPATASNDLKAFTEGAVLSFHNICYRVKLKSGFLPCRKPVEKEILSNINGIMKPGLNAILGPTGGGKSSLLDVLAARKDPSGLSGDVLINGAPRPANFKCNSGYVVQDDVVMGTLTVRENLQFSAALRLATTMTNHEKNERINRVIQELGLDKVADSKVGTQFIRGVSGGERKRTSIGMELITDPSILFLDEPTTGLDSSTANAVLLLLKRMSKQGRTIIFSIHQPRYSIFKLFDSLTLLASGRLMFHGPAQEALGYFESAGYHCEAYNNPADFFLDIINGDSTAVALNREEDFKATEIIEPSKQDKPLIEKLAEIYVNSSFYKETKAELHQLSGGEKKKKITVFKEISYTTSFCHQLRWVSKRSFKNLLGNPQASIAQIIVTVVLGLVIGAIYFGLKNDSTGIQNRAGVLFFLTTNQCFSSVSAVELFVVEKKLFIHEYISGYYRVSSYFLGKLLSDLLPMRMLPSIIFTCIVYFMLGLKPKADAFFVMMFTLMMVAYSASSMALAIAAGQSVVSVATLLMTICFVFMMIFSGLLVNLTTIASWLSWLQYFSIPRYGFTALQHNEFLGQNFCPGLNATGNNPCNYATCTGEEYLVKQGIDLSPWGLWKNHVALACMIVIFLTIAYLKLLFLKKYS
# UniProt P33261, whole entry, looked up: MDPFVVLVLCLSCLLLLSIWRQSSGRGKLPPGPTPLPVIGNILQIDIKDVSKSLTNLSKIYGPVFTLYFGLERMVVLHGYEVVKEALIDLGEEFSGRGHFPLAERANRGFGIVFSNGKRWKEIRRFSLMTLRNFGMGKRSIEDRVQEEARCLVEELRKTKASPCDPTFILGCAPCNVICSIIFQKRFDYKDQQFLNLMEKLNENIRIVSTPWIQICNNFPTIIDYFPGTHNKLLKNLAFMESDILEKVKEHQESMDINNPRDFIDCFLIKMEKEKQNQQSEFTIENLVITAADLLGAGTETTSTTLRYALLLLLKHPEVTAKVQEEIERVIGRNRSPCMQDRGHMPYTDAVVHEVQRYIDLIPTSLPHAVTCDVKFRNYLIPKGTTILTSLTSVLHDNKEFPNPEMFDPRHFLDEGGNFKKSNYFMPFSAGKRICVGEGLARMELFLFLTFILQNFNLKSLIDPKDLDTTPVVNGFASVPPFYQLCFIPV
# UniProt P05979, whole entry, looked up: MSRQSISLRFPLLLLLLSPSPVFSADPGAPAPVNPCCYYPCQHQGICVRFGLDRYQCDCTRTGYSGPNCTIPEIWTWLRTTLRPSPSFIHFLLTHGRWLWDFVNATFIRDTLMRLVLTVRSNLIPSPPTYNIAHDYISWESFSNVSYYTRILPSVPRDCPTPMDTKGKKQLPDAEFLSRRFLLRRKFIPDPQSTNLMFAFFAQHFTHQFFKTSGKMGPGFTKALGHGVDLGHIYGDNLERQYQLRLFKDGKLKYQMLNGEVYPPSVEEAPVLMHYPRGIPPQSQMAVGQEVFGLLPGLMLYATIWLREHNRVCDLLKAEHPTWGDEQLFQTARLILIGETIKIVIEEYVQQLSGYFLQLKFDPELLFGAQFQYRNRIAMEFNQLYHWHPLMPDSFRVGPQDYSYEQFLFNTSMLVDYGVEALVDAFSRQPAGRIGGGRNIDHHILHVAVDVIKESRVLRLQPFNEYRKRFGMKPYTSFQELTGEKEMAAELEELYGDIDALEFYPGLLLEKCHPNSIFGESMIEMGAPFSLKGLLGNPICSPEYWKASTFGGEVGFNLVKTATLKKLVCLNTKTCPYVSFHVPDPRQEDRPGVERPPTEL
# UniProt P21709: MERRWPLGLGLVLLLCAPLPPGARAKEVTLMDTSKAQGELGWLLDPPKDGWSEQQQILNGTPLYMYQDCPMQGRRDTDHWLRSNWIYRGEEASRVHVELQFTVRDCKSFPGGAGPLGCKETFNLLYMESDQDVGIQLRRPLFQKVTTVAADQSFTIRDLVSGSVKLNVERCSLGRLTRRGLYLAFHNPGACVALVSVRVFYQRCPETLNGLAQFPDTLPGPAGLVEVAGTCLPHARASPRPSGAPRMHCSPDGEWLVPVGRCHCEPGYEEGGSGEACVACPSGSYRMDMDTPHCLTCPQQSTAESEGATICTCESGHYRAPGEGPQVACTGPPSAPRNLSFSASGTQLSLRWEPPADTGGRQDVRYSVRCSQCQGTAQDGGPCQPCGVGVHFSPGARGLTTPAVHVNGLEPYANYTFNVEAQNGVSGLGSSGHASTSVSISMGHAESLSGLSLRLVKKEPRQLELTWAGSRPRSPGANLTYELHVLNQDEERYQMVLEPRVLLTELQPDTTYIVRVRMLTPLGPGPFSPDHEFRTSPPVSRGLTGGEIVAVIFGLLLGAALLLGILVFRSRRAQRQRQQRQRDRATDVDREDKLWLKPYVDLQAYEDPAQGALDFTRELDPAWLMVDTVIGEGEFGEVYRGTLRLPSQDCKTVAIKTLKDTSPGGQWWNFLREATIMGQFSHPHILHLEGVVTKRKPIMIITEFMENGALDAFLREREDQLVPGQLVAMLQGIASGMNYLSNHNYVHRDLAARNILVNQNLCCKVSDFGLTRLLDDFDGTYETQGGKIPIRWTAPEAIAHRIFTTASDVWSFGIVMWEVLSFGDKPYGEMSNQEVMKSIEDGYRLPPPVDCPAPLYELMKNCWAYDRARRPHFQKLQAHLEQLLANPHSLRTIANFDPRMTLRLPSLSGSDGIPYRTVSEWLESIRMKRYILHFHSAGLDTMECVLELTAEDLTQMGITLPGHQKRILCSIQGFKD
# UniProt Q14994: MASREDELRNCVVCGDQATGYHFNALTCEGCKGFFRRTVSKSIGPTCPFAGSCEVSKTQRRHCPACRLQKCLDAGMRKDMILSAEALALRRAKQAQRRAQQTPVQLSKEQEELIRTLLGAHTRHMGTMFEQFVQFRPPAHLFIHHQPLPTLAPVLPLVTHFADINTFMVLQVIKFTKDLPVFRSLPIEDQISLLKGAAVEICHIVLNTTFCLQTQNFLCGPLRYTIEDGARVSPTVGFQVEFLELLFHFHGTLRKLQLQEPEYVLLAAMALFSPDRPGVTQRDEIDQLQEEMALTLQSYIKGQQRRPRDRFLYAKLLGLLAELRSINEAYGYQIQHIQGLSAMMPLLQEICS
# UniProt P37231: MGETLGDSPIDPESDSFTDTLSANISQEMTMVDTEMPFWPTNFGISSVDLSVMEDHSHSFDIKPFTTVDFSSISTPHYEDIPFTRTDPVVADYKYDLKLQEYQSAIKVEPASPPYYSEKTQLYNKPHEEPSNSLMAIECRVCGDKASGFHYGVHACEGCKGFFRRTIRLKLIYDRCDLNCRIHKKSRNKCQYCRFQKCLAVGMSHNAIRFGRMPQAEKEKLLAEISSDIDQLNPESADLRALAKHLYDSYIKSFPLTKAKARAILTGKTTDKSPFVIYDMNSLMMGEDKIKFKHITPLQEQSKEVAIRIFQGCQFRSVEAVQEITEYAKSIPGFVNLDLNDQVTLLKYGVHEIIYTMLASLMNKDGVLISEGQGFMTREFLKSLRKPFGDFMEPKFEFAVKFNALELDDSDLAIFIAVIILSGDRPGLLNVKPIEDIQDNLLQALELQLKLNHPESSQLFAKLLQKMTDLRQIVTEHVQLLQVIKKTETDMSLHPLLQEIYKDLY
# UniProt Q07869: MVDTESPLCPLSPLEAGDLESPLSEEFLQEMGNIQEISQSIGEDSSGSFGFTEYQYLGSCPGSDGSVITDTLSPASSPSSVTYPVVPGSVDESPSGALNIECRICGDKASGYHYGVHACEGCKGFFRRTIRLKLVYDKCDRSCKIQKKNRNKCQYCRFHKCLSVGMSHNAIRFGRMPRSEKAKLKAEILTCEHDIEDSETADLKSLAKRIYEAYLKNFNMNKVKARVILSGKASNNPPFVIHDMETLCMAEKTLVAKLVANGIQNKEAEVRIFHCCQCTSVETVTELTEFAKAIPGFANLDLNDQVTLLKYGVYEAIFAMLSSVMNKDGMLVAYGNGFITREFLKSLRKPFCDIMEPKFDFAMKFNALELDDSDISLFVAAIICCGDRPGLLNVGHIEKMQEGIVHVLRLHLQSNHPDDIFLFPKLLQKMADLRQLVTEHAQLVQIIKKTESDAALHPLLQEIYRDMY
# “And” between values parts separate entries of the source, which are not always exact repeats. Equal entries are not always repeated. Inconclusive results, whose numbers are uncertain, are shown with a selection of clear calls. Where the call is inconclusive, the potency comes from a doubtful curve fit. The source made the active and inactive calls. Rule for the calls: active = hit-call score of the fitted dose curve at least 0.9, where 1 is the maximum; inconclusive = response in the unintended direction; inactive = score below 0.9.
# How the values were obtained:
# [1] = Tanguay_ZF_120hpf_EYE_legacy: (Legacy) Oregon State University Tanguay Lab 120 Hour Post-fertilization zebrafish Assay for Eye Malformation (AID 2283636);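 note: binary presence or absence of eye malformation scored by brightfield in 120 hpf larvae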
# Method in brief: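 Dechorionated wild-type Tropical 5D zebrafish embryos were exposed statically from 6 hpf, one per well, to 120 hpf at 28C in sealed, foil-covered plates with 0.64% DMSO. Eye malformation was scored present/absent by brightfield microscopy against DMSO controls.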
# [2] = Tanguay_ZF_120hpf_SOMI_legacy: (Legacy) Oregon State University Tanguay Lab 120 Hour Post-fertilization zebrafish Assay for Somite Malformation (AID 2283647)
# Method in brief: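 Read-out: presence or absence of somite malformation in 120 hpf larvae, gain-of-signal relative to DMSO baseline. Embryos lacked chorion (pronase, 4 hpf) and were exposed statically from 6 hpf at 28C; dead larvae not scored.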
# [3] = Tanguay_ZF_120hpf_SWIM_legacy: (Legacy) Oregon State University Tanguay Lab 120 Hour Post-fertilization zebrafish Assay for Swim Bladder Malformation (AID 2283654);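 note: swim bladder malformation in each larva scored yes or no under brightfield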
# Method in brief: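 Dechorionated Tropical 5D wild-type embryos, placed singly from 6 hpf, were statically exposed at 28C to 120 hpf with 0.64% DMSO final; swim bladder malformation was scored present/absent by brightfield microscopy, gain of signal relative to DMSO controls.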
# [4] = CLD_ACTIN_6hr: CellzDirect (CLD) Gene Expression Assay for Baseline Control (Actin) at 6 hours (AID 2283676);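 for outcome: active means increased actin mRNA relative to DMSO vehicle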
# Method in brief: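 Primary human hepatocytes dosed with fresh chemical solutions (vehicle 0.2% DMSO), harvested at 6 h. Actin mRNA quantified by quantitative nuclease protection assay with chemiluminescent read-out, as background control relative to DMSO.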
# [5] = read-out: ABC Transporter (ABCB1), ABCB1 (gene 5243); assay: CLD_ABCB1_48hr: CellzDirect (CLD) Gene Expression Assay for ABC Transporter (ABCB1) at 48 hours (AID 2283695);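 for AC50: potency for induction meaning increase of mRNA over DMSO vehicle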
# Method in brief: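 Primary human hepatocytes from two donor preparations dosed daily on two consecutive days with 0.2% DMSO vehicle. Harvest at 48 h. ABCB1 mRNA quantified by qNPA with chemiluminescence and fitted for gain of signal versus DMSO.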
# [6] = read-out: ABC Transporter (ABCB11), ABCB11 (gene 8647); assay: CLD_ABCB11_48hr: CellzDirect (CLD) Gene Expression Assay for ABC Transporter (ABCB11) at 48 hours (AID 2283697)
# Method in brief: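 Primary human hepatocytes from two donor preparations dosed daily for two days at multiple concentrations; 0.2% DMSO vehicle. ABCB11 mRNA at 48 h by quantitative nuclease protection assay, chemiluminescence; fitted for induction versus DMSO.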
# [7] = read-out: Broad substrate specificity ATP-binding cassette transporter ABCG2 (Homo sapiens) (UniProt Q9UNQ0); assay: CLD_ABCG2_48hr: CellzDirect (CLD) Gene Expression Assay for ABC Transporter (ABCG2) at 48 hours (AID 2283704);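 for AC50: potency for induction of ABCG2 mRNA above the DMSO baseline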
# Method in brief: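 Primary human hepatocytes from two donors, dosed daily for 2 days, 0.2% DMSO vehicle, several concentrations. ABCG2 mRNA at 48 h by qNPA chemiluminescence, gain fitted versus DMSO; cytotoxicity flagged by morphology.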
# [8] = Tanguay_ZF_120hpf_JAW_legacy: (Legacy) Oregon State University Tanguay Lab 120 Hour Post-fertilization zebrafish Assay for Jaw Malformation (AID 2283638);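 for AC50: active means more embryos with jaw malformation than DMSO controls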
# Method in brief: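 Steps: dechorionate 4 hpf embryos (pronase); plate 1/well at 6 hpf; add test chemical, 0.64% DMSO final; seal, cover, hold at 28C statically to 120 hpf; score jaw defect presence/absence microscopically. Dead embryos not scored.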
# [9] = read-out: xenobiotic metabolism (CYP2C9), CYP2C9 (gene 1559); assay: CLD_CYP2C9_6hr: CellzDirect (CLD) Gene Expression Assay for xenobiotic metabolism (CYP2C9) at 6 hours (AID 2283664)
# Method in brief: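 Primary human hepatocytes dosed daily with test chemicals at multiple concentrations; harvested at 6 h. CYP2C9 mRNA induction measured by qNPA chemiluminescence. Gain of signal fitted against 0.2% DMSO vehicle; cytotoxicity annotated from phase-contrast morphology.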
# [10] = read-out: Cytochrome P450 2C19 (Homo sapiens) (UniProt P33261); assay: CLD_CYP2C19_6hr: CellzDirect (CLD) Gene Expression Assay for xenobiotic metabolism (CYP2C19) at 6 hours (AID 2283678)
# Method in brief: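 Primary human hepatocytes from two donor preparations were dosed daily, with 0.2% DMSO as vehicle, and harvested 6 h after dosing. CYP2C19 mRNA induction was measured by qNPA chemiluminescence and fitted as gain of signal against DMSO.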
# [11] = target: sheep Cyclooxygenase-1 (Cox1), PTGS1 (gene 443551) (UniProt P05979); assay: NVS_ENZ_oCOX1: NovaScreen (NVS) Enzymatic Assay for sheep Cyclooxygenase-1 (Cox1) (AID 2283239);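 note: actives reduce cyclooxygenase activity so potencies are for inhibitors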
# Method in brief: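 Absorbance read-out of cyclooxygenase activity in a cell-free preparation from sheep seminal vesicles, taken 0.66 hour after dosing. Initial testing was in duplicate at 25 uM, and confirmatory testing was run in concentration series.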
# [12] = Tanguay_ZF_120hpf_TRUN_legacy: (Legacy) Oregon State University Tanguay Lab 120 Hour Post-fertilization zebrafish Assay for Truncated Body (AID 2283655)
# Method in brief: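 Truncated body is recorded as a binary endpoint at 120 hpf by brightfield imaging of wild-type 5D larvae. Exposure runs statically from 6 hpf at 28C with 0.64% DMSO; embryos dying earlier are not scored.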
# [13] = Tanguay_ZF_120hpf_TR_legacy: (Legacy) Oregon State University Tanguay Lab 120 Hour Post-fertilization zebrafish Assay for Touch Response (AID 2283667)
# Method in brief: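 Tropical 5D wild-type zebrafish embryos were exposed statically in sealed, foil-covered plates at 28C until 120 hpf, with 0.64% (vol/vol) final DMSO. Touch response was scored as present or absent; embryos that died were not scored.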
# [14] = target: human Ephrin type-A Receptor 1 (EphA1), EPHA1 (gene 2041) (UniProt P21709); assay: NVS_ENZ_hEphA1: NovaScreen (NVS) Enzymatic Assay for human Ephrin type-A Receptor 1 (EphA1) (AID 2283158);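 note: activity is signal loss versus DMSO meaning EphA1 kinase inhibition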
# Method in brief: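 Chemicals first tested in duplicate at 25 uM against recombinant EphA1 with a fluorescent substrate; those passing threshold went to singleton dose-response topping at 50 uM. Activity read 1 h later as mobility-shift fluorescence, loss of signal relative to DMSO.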
# [15] = CCTE_Shafer_MEA_acute_LDH: CCTE's Lactate Dehydrogenase Assay for Cytotoxicity in the Neural Acute Assay, Shafer Lab (AID 2284086);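 note: active means LDH release rises above DMSO vehicle level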
# Method in brief: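 Medium from rat cortical neuron MEA cultures sampled right after the 40 min compound-exposure recording; released LDH measured by absorbance at 490 nm. Analyzed as signal gain relative to DMSO.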
# [16] = Tanguay_ZF_120hpf_PIG_legacy: (Legacy) Oregon State University Tanguay Lab 120 Hour Post-fertilization zebrafish Assay for Pigmentation Malformation (AID 2283650)
# Method in brief: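 Tropical 5D wild-type zebrafish embryos, dechorionated with pronase at 4 hpf, were exposed singly from 6 hpf to 120 hpf statically at 28C in sealed, dark plates with 0.64% DMSO; pigmentation scored present/absent by brightfield microscopy, fitted against DMSO.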
# [17] = target: human Constitutive Androstane Receptor (CAR), NR1I3 (gene 9970) (UniProt Q14994); assay: NVS_NR_hCAR_Antagonist: NovaScreen (NVS) Nuclear Receptor Binding Assay for human Constitutive Androstane Receptor Antagonism (CAR) (AID 2283344)
# Method in brief: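 Cell-free TR-FRET binding read 1 h after dosing, antagonist mode; loss of signal versus DMSO baseline. Primary screen in duplicate at a single 25 uM; actives retested in concentration series.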
# [18] = target: Peroxisome proliferator-activated receptor gamma (Homo sapiens) (UniProt P37231); assay: NVS_NR_hPPARg: NovaScreen (NVS) Nuclear Receptor Binding Assay for human Peroxisome Proliferator-activated Receptor gamma (PPARg) (AID 2283370)
# Method in brief: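 Chemicals were tested first in duplicate at 25 uM, then in concentration series if active. Binding to cell-free PPARg protein was measured by fluorescence polarization after 2 h, with loss of signal scored against DMSO.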
# [19] = CCTE_Shafer_MEA_dev_AB: CCTE's Alamar Blue Assay for Cytotoxicity in the Neural Network Formation Assay, Shafer Lab (AID 2284083);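 note: resazurin reduction fluorescence as viability of cultured neurons; twelve days of exposure from plating with re-dosing on DIV 5 and 9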
# Method in brief: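 Resazurin fluorescence, relative to DMSO, gauges viability after twelve days of exposure that began at plating of rat cortical neurons (1.5 x 10^5 cells/well, 48-well MEA); treatment renewed with full medium exchange on DIV 5 and 9.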
# [20] = target: human Peroxisome Proliferator-activated Receptor alpha (PPARa), PPARA (gene 5465) (UniProt Q07869); assay: NVS_NR_hPPARa: NovaScreen (NVS) Nuclear Receptor Binding Assay for human Peroxisome Proliferator-activated Receptor alpha (PPARa) (AID 2283359);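 note: activity means loss of TR-FRET signal versus DMSO baseline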
# Method in brief: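 Cell-free binding assay with extracted human protein, read by TR-FRET 1 h after chemical dosing. Loss of signal relative to DMSO baseline indicates binding. Primary screen used duplicate single concentration (25 uM); actives followed up in concentration series.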
compound,measurement,setting,value
CC(C)C1(C)N=C(c2ncccc2C(=O)O)NC1=O (stereo unspecified),outcome,[1],inactive
same,AC50,[2],inconclusive: 4.37 µM
same,AC50,[3],inconclusive: 8.75 µM
same,AC50,[4],inconclusive: 20 µM
same,outcome,[5],inactive
same,outcome,[6],inactive
same,AC50,[7],inconclusive: 0.000683 µM
CCNc1nc(Cl)nc(NC(C)(C)C#N)n1,AC50,[8],inconclusive: 57 µM
same,AC50,[2],inconclusive: 174 µM
same,outcome,[9],inactive
same,AC50,[4],inconclusive: 20 µM
same,outcome,[10],inactive
same,outcome,[5],inactive
same,AC50,[7],inconclusive: 20 µM
COc1cc(OC)nc(NC(=O)NS(=O)(=O)c2ncccc2C(=O)N(C)C)n1,AC50,[11],inconclusive: 25 µM
CC(C)(C)OOC(=O)c1ccccc1,outcome,[12],inactive
same,AC50,[13],inconclusive: 2.68 µM
Nc1cnn(-c2ccccc2)c(=O)c1Cl,AC50,[9],inconclusive: 20 µM
same,AC50,[4],inconclusive: 20 µM
same,AC50,[10],inconclusive: 1.97 µM
same,AC50,[5],inconclusive: 37.5 µM
same,AC50,[6],inconclusive: 0.0075 µM
same,outcome,[7],inactive
CC=Cc1ccc2c(c1)OCO2,AC50,[14],inconclusive: 14.7 µM
OCCN(CCO)CCO,AC50,[13],inconclusive: 29.3 µM
Nc1ccc(Cc2ccc(N)cc2)cc1,AC50,[12],inconclusive: 33.9 µM
ClC(Cl)(Cl)c1ccccc1,outcome,[1],inactive
same,AC50,[3],inconclusive: 181 µM
same,AC50,[12],inconclusive: 0.0129 µM
same,AC50,[13],inconclusive: 4.4 µM
same,outcome,[15],inactive
CC(C)(C)c1ccc(CCOc2ncnc3ccccc23)cc1,AC50,[14],inconclusive: 5.43 µM
O=S(=O)(c1ccccc1)c1ccccc1,AC50,[14],inconclusive: 0.815 µM
same,AC50,[11],inconclusive: 19.9 µM
Cc1ncc(C[n+]2csc(CCO)c2C)c(N)n1,outcome,[14],inactive
COC(=O)c1ccccc1N,outcome,[2],inactive
same,AC50,[16],inconclusive: 3.46 µM
CC(C)[C@H](C(=O)O[C@H](C#N)c1cccc(Oc2ccccc2)c1)c1ccc(Cl)cc1,AC50,[17],inconclusive: 25 µM
same,outcome,[18],inactive
same,AC50,[1],active: 2.82 µM
same,AC50,[8],active: 5.13 µM
same,AC50,[2],active: 1.15 µM
same,AC50,[3],active: 4.25 µM
same,AC50,[9],inconclusive: 20 µM
same,AC50,[13],active: 5.43 µM
same,AC50,[10],inconclusive: 20 µM
same,AC50,[7],inconclusive: 3.47 µM
same,AC50,[19],active: 20.9 nM
same,AC50,[15],inconclusive: 20 µM
CCCN(CC)CC1COC2(CCC(C(C)(C)C)CC2)O1 (stereo unspecified),AC50,[17],inconclusive: 1.38 µM
same,AC50,[13],inconclusive: 0.00143 µM
same,AC50,[4],inconclusive: 0.00114 µM
same,outcome,[5],inactive
same,AC50,[6],inconclusive: 1.97 µM
same,outcome,[7],inactive
same,AC50,[15],inconclusive: 20 µM
COP(=O)(OC)C(O)C(Cl)(Cl)Cl (stereo unspecified),outcome,[8],inactive
same,outcome,[16],inactive
same,outcome,[3],inactive
same,outcome,[12],inactive
same,AC50,[4],inconclusive: 20 µM
same,outcome,[7],inactive
same,AC50,[19],active: 50 µM and active: 1.05 µM
same,AC50,[15],inconclusive: 15 µM
CC(C)(C)c1ccccc1O,outcome,[11],inactive
same,outcome,[20],inactive
same,AC50,[18],inconclusive: 25 µM
same,AC50,[13],inconclusive: 43.2 µM
same,outcome,[15],inactive
c1ccc2c(c1)oc1ccccc12,AC50,[3],inconclusive: 5.52 µM
ClCC(Cl)Cl,AC50,[14],inconclusive: 25 µM
CN(C)C(=O)Nc1cccc(C(F)(F)F)c1,outcome,[4],inactive
CN(C)[C@@H]1C(=O)C(C(N)=O)=C(O)[C@@]2(O)C(=O)C3=C(O)c4c(O)cccc4[C@@](C)(O)[C@H]3C[C@@H]12,outcome,[2],inactive
CC(Oc1cccc(Cl)c1)C(=O)O (stereo unspecified),outcome,[3],inactive
same,outcome,[10],inactive
same,AC50,[19],inconclusive: 10000 nM
CCCN(CCC)c1c([N+](=O)[O-])cc(C(C)C)cc1[N+](=O)[O-],outcome,[17],inactive
same,AC50,[1],inconclusive: 25.4 µM
same,AC50,[8],inconclusive: 102 µM
same,AC50,[16],inconclusive: 11.2 µM
CCCCCCOC(=O)c1ccccc1C(=O)OCCCCCC,AC50,[20],inconclusive: 47 µM
same,AC50,[18],inconclusive: 0.497 µM
same,AC50,[3],inconclusive: 0.00711 µM
same,AC50,[13],inconclusive: 9.67 µM
Clc1ccccc1Cl,outcome,[11],inactive
same,AC50,[18],inconclusive: 10.2 µM

# Retrieved one by one from the entries so far:
compound,measurement,setting,value
Nc1ccc(Cc2ccc(N)cc2)cc1,AC50,[12],inconclusive: 33.9 µM
CC(C)[C@H](C(=O)O[C@H](C#N)c1cccc(Oc2ccccc2)c1)c1ccc(Cl)cc1,AC50,[17],inconclusive: 25 µM
Nc1cnn(-c2ccccc2)c(=O)c1Cl,outcome,[7],inactive
COP(=O)(OC)C(O)C(Cl)(Cl)Cl (stereo unspecified),AC50,[19],active: 50 µM and active: 1.05 µM
